{"source": "PubChem BioAssay AID1259254 – NCATS, 2017", "purpose": "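Finding genes that stop cells copying their DNA twice in one cycle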 (primary screen)", "system": "human HCT116 colorectal cancer cells", "reagent": "single siRNA against human genes", "timing": "3 days", "measurement": "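Nuclei stained with Hoechst and imaged; cell-cycle phase assigned by DNA content; G2 share scaled per plate, non-targeting siRNA 0%, GMNN siRNA 100%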", "direction": "G2 robust z-score: higher = more G2 cells, more excess DNA replication", "active means": "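Active siRNAs have a G2 robust z of 5 or more median absolute deviations over the median, which in these data means about 38% or higher of GMNN control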", "note": "This is an unselected part of about 59,000 reagents. Over the whole deposit, about 1,550 (2.6%) are marked active. 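G2 share is only a proxy for re-replication; each gene was hit by three separate siRNAs, and active genes were retested.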 The numbers tell different reagents against one gene apart. Further read-outs or replicates are left out here. Reagent sequences are not shown. The record does not give: the amount of reagent."}
{"Gene":"TSHZ3","siRNA no.":1,"G2 robust z-score":0.102,"outcome":"inactive"}
{"Gene":"TSHZ3","siRNA no.":2,"G2 robust z-score":0.872,"outcome":"inactive"}
{"Gene":"TSHZ3","siRNA no.":3,"G2 robust z-score":1.14,"outcome":"inactive"}
{"Gene":"KANK2","siRNA no.":1,"G2 robust z-score":1.79,"outcome":"inactive"}
{"Gene":"KANK2","siRNA no.":2,"G2 robust z-score":3.57,"outcome":"inactive"}
{"Gene":"KANK2","siRNA no.":3,"G2 robust z-score":1.23,"outcome":"inactive"}
{"Gene":"NFE2","siRNA no.":1,"G2 robust z-score":-0.703,"outcome":"inactive"}
{"Gene":"NFE2","siRNA no.":2,"G2 robust z-score":-0.62,"outcome":"inactive"}
{"Gene":"NFE2","siRNA no.":3,"G2 robust z-score":0.15,"outcome":"inactive"}
{"Gene":"RPL23AP25","siRNA no.":1,"G2 robust z-score":0.164,"outcome":"inactive"}
{"Gene":"RPL23AP25","siRNA no.":2,"G2 robust z-score":-0.241,"outcome":"inactive"}
{"Gene":"RPL23AP25","siRNA no.":3,"G2 robust z-score":4.81,"outcome":"inactive"}
{"Gene":"CEP131","siRNA no.":1,"G2 robust z-score":3.39,"outcome":"inactive"}
{"Gene":"CEP131","siRNA no.":2,"G2 robust z-score":-0.479,"outcome":"inactive"}
{"Gene":"CEP131","siRNA no.":3,"G2 robust z-score":0.323,"outcome":"inactive"}
{"Gene":"SPOCK1","siRNA no.":1,"G2 robust z-score":3.74,"outcome":"inactive"}
{"Gene":"SPOCK1","siRNA no.":2,"G2 robust z-score":0.941,"outcome":"inactive"}
{"Gene":"SPOCK1","siRNA no.":3,"G2 robust z-score":-0.842,"outcome":"inactive"}
{"Gene":"ACSM2A","siRNA no.":1,"G2 robust z-score":0.0976,"outcome":"inactive"}
{"Gene":"ACSM2A","siRNA no.":2,"G2 robust z-score":-0.267,"outcome":"inactive"}
{"Gene":"ACSM2A","siRNA no.":3,"G2 robust z-score":2.24,"outcome":"inactive"}
{"Gene":"PAGE3","siRNA no.":1,"G2 robust z-score":3.12,"outcome":"inactive"}
{"Gene":"PAGE3","siRNA no.":2,"G2 robust z-score":1.1,"outcome":"inactive"}
{"Gene":"PAGE3","siRNA no.":3,"G2 robust z-score":-0.535,"outcome":"inactive"}
